The other results are listed elsewhere or left out.
Compound: Cc1cc(ccc1-c1ccccc1)C(=O)N1CCCN(CC1)C(=O)CCl [compound 10]
Test: probe-labelled cysteine peptide fold change vs DMSO (competition) (log2 fold change); higher = less target engagement (more negative = stronger competition)
Conditions: THP-1, incubation time: 4 h
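Also: competitive profiling in live THP-1 cells: cysteine peptides tagged with an iodoacetamide desthiobiotin (IA-DTB) probe, intensity after compound treatment relative to DMSO-treated cells.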

Amino acid sequences for entries named in this document (tags omitted). A change or cut given only in a name is not applied to a line headed by its entry.
UniProt O75151: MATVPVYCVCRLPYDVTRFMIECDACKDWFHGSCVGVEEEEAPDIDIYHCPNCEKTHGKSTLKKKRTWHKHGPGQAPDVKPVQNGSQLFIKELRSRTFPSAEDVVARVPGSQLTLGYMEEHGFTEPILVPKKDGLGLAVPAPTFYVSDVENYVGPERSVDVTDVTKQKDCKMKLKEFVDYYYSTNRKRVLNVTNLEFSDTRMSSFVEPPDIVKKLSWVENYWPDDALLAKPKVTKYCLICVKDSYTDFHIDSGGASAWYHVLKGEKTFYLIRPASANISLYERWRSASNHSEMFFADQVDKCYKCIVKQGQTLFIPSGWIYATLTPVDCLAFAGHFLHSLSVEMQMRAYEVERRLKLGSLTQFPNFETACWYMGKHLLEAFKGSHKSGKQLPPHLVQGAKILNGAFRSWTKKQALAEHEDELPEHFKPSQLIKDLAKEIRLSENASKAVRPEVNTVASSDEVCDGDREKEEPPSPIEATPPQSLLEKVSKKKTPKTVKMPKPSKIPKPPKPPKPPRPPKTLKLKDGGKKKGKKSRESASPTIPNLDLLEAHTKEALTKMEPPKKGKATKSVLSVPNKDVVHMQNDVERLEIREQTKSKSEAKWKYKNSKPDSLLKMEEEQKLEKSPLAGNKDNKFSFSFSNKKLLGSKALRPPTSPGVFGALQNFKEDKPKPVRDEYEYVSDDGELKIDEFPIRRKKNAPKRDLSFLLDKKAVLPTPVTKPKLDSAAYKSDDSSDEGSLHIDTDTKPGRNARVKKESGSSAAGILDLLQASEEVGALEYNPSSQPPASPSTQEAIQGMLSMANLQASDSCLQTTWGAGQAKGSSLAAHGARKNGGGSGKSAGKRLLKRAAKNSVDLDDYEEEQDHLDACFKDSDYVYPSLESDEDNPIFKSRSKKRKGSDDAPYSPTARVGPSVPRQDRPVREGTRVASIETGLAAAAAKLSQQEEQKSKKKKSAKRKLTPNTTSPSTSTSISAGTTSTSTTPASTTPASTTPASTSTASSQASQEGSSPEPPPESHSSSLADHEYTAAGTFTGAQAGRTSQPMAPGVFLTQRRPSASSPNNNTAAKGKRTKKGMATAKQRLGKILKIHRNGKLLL
UniProt P18669: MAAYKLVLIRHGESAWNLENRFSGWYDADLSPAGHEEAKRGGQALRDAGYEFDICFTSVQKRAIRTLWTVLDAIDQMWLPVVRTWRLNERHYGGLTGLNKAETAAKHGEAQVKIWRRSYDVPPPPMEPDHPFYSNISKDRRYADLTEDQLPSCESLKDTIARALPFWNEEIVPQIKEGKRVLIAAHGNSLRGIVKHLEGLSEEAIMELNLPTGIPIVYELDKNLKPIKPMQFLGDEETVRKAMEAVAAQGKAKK
UniProt Q13608: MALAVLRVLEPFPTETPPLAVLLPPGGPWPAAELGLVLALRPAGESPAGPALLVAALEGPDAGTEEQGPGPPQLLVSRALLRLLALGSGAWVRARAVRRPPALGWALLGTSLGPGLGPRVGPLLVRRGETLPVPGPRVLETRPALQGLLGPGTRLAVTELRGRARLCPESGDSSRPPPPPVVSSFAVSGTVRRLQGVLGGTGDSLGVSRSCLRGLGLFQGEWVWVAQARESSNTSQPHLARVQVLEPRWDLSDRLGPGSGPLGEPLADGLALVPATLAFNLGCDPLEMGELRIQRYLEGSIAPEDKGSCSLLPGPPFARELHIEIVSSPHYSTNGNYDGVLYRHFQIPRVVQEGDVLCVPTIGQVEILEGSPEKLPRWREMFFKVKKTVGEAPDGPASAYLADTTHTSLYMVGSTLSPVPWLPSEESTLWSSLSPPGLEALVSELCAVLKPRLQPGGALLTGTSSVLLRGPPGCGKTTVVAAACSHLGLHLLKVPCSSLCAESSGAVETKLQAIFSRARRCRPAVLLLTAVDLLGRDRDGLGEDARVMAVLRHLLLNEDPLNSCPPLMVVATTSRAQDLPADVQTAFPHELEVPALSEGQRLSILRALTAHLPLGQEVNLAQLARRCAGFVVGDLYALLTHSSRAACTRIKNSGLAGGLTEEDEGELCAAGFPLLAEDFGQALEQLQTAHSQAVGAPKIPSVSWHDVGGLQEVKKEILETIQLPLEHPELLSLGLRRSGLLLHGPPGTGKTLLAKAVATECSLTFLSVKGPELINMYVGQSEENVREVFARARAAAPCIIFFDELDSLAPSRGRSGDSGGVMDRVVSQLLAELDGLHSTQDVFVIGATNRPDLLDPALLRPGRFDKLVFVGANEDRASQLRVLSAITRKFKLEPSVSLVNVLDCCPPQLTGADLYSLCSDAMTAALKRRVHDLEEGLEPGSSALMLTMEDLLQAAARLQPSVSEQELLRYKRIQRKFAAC
UniProt Q8WUB8: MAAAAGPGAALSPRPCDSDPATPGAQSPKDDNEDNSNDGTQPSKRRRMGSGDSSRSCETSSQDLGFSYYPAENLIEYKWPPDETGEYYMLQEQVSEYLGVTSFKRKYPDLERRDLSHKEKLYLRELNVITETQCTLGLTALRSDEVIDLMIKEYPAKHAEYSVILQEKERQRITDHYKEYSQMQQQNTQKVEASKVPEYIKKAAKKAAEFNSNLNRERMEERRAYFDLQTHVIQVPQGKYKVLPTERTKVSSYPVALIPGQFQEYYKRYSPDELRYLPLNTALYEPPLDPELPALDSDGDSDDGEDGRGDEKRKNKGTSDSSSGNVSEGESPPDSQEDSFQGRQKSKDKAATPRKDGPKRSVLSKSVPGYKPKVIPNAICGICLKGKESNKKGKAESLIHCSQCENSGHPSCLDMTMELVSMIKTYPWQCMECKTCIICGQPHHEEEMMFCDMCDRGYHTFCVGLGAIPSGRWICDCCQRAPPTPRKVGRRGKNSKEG
UniProt O00443: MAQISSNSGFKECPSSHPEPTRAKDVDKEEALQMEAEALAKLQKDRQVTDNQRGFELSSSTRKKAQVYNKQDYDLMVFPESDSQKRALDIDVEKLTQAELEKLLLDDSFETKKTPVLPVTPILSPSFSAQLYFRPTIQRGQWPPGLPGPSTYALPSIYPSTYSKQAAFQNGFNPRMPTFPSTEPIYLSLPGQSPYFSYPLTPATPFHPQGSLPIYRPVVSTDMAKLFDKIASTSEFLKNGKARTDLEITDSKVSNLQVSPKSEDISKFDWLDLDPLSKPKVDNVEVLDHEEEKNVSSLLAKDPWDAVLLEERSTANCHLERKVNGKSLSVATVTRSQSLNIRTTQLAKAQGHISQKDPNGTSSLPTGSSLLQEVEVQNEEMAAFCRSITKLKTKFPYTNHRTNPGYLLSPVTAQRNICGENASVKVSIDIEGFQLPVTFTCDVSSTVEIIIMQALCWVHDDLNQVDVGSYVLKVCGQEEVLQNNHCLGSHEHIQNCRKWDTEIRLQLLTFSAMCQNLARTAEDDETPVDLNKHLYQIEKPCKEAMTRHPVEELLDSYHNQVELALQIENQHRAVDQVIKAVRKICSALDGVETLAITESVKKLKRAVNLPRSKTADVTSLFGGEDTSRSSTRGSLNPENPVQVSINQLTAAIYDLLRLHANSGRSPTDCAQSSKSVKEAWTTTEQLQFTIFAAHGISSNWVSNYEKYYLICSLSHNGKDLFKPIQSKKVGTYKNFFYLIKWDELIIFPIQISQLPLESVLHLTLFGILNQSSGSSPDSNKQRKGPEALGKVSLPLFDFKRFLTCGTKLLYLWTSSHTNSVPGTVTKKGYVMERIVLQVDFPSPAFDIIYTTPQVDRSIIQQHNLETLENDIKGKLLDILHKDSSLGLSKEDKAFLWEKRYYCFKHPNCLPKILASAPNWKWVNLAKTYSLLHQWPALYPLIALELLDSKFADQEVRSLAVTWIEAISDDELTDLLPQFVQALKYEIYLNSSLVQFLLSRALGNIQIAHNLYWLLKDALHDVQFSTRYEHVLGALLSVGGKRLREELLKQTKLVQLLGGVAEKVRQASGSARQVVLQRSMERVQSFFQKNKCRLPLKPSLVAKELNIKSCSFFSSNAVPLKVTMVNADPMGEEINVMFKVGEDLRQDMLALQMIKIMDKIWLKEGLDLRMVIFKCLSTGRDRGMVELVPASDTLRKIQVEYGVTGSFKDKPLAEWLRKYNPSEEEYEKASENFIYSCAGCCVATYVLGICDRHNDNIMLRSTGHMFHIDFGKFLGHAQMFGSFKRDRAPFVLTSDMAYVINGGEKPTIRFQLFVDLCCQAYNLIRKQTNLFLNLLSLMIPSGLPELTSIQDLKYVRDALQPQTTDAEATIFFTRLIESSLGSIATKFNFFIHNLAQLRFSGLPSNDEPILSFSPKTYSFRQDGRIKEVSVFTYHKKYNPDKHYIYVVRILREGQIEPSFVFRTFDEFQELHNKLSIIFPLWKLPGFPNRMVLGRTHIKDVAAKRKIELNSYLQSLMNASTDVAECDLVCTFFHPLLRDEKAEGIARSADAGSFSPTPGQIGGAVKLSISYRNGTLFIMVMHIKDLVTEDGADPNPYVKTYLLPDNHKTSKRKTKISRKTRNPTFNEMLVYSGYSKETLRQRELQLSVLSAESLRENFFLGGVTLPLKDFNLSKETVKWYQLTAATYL
UniProt O96011: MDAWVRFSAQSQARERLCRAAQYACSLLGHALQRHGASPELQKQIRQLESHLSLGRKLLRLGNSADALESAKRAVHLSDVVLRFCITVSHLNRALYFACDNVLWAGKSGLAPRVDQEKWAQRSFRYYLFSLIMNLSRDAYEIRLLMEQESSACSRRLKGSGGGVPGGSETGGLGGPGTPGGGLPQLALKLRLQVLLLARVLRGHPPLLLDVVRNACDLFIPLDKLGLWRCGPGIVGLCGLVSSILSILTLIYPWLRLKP
UniProt O94880: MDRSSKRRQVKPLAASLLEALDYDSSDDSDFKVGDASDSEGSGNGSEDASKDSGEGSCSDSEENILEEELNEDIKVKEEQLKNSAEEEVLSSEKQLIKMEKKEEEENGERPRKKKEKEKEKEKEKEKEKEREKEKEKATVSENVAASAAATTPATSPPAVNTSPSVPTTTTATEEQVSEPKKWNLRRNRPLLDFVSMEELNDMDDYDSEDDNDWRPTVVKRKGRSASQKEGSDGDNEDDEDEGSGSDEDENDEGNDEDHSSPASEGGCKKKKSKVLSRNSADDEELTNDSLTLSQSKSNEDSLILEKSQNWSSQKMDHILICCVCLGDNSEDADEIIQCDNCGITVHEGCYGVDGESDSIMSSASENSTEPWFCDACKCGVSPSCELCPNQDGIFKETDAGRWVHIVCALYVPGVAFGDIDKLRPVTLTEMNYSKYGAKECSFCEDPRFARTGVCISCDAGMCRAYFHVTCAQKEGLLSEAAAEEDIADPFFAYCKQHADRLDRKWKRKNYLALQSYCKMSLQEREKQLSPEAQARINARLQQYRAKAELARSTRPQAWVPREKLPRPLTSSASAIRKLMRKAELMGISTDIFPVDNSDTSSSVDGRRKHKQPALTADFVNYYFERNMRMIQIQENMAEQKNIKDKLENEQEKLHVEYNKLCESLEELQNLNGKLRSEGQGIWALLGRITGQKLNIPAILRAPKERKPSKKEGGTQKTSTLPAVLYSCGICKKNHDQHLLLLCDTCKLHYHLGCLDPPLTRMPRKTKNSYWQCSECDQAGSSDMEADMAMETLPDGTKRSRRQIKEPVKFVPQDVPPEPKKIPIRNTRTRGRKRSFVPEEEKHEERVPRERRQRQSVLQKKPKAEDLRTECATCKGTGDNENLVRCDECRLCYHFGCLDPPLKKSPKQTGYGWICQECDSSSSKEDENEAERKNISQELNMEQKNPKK
UniProt Q7RTV0, whole entry, looked up: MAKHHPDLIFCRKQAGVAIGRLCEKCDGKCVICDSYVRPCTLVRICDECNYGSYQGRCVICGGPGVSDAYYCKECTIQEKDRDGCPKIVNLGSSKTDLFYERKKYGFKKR
UniProt O75925, whole entry, looked up: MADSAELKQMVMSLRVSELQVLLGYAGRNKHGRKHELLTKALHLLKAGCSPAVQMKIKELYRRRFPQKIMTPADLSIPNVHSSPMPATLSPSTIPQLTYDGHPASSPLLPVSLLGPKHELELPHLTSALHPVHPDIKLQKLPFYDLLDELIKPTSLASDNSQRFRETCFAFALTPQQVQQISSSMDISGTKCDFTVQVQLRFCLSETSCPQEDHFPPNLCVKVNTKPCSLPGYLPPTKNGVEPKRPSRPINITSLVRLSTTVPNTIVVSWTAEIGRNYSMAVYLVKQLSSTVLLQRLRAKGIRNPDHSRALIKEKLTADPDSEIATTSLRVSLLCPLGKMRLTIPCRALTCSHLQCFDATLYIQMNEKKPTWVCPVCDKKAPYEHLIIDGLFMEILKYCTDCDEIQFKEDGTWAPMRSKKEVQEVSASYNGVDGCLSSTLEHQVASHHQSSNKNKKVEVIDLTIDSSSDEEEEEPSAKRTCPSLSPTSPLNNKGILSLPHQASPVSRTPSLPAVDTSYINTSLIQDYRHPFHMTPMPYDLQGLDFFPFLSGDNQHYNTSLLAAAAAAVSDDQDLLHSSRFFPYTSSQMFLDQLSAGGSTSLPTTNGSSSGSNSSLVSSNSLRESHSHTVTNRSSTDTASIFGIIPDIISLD

Target | probe-labelled cysteine peptide fold change (10 µM) | probe-labelled cysteine peptide fold change (50 µM)
PFKFB3_Q16875_102_QCALAALR (UniProt Q16875) | -0.03 | -0.0221
PEX1_O43933_310_HCAIHVFPWDQEYFDVEPSFTVTYGK (UniProt O43933) | -0.0827 | -0.0268
PEPD_P12955_158_GVNTDSGSVCR (UniProt P12955) | -0.0905 | -0.0716
PHF2_O75151_50_DWFHGSCVGVEEEEAPDIDIYHCPNCEK (UniProt O75151) | -0.049 | -0.387
PGAM1_P18669_153_RYADLTEDQLPSCESLK (UniProt P18669) | -0.161 | -0.282
PHIP_Q8WWQ0_1382_ETLEAGNYESPMELCK (UniProt Q8WWQ0) | -0.108 | -0.00466
PFKP_Q01813_641_NESCSENYTTDFIYQLYSEEGK (UniProt Q01813) | -0.131 | 0.111
PGM2L1_Q6PCE3_303_CPNPEEGESVLELSLR (UniProt Q6PCE3) | -0.215 | -0.533
PFN1_P07737_128_KCYEMASHLRR (UniProt P07737) | -0.531 | -0.695
PEX6_Q13608_564_HLLLNEDPLNSCPPLMVVATTSR (UniProt Q13608) | 0.0661 | 0.052
PHF11_Q9UIL8_135_NYHFFCAK (UniProt Q9UIL8) | 0.0736 | 0.303
PGLS_O95336_78_WTLGFCDER (UniProt O95336) | 0.0732 | 0.168
PHF10_Q8WUB8_454_TCIICGQPHHEEEMMFCDMCDR (UniProt Q8WUB8) | -0.587 | -0.186
PGGT1B_P53609_131_APGTAHPYDSGHIAMTYTGLSCLVILGDDLSR (UniProt P53609) | 0.242 | 0.21
PHF8_Q9UPP1_86_AADIDLYHCPNCEVLHGPSIMK (UniProt Q9UPP1) | -8.84e-05 | -0.0911
PGM1_P36871_160_TIEEYAVCPDLK (UniProt P36871) | -0.131 | 0.054
PEPD_P12955_482_TVEEIEACMAGCDK (UniProt P12955) | -0.226 | -0.358
PIK3C2A_O00443_541_HLYQIEKPCK (UniProt O00443) | -0.457 | -1.29
PHGDH_O43175_18_VLISDSLDPCCR (UniProt O43175) | -0.444 | -0.677
PFKL_P17858_114_RAAAYNLVQHGITNLCVIGGDGSLTGANIFR (UniProt P17858) | 0.0296 | 0.0301
PHIP_Q8WWQ0_1335_QCEELLNLIFQCEDSEPFR (UniProt Q8WWQ0) | -0.169 | -0.506

Target | probe-labelled cysteine peptide fold change (10 µM) | probe-labelled cysteine peptide fold change (50 µM)
PIK3CB_P42338_626_EYAVGCLR (UniProt P42338) | 0.264 | 0.172
PHKB_Q93100_280_QTLCSLLPR (UniProt Q93100) | 0.0194 | 0.168
PEX11B_O96011_25_AAQYACSLLGHALQR (UniProt O96011) | 0.166 | 0.0421
PEX14_O75381_342_REDKEDEEDEEDDDVSHVDEEDCLGVQR (UniProt O75381) | 0.213 | 0.344
PFAS_O15067_336_DVQCTGR (UniProt O15067) | -0.0803 | 0.084
PHF14_O94880_754_LHYHLGCLDPPLTR (UniProt O94880) | -0.0058 | -0.0102
PHF6_Q8IWS0_212_CGFCHVGEEENEAR (UniProt Q8IWS0) | 0.14 | -0.1
PFKL_P17858_170_TYSHLNIAGLVGSIDNDFCGTDMTIGTDSALHR (UniProt P17858) | -0.0126 | 0.188
PEPD_P12955_183_FEVNNTILHPEIVECR (UniProt P12955) | 0.137 | 0.234
PFKP_Q01813_343_MGVEAVIALLEATPDTPACVVSLNGNHAVR (UniProt Q01813) | -0.174 | -0.138
PHF5A_Q7RTV0_46_ICDECNYGSYQGR (UniProt Q7RTV0) | -0.00469 | -0.327
PIK3CD_O00329_416_ADCPIAWANLMLFDYK (UniProt O00329) | 0.419 | 0.323
PGPEP1_Q9NXJ5_99_GLDNCR (UniProt Q9NXJ5) | -0.124 | -0.8
PGD_P52209_289_CLSSLK (UniProt P52209) | 0.148 | 0.165
PIK3CD_O00329_382_QRLEFDINICDLPR (UniProt O00329) | -0.0788 | 0.232
PFAS_O15067_871_LGGTALAQCFSQLGEHPPDLDLPENLVR (UniProt O15067) | 0.0885 | -0.002
PIK3CB_P42338_287_ALPHFILVECCK (UniProt P42338) | -0.174 | -0.88
PIAS1_O75925_402_YCTDCDEIQFK (UniProt O75925) | -0.0248 | -0.163
PHF6_Q8IWS0_242_CMLFSSGTVQLTTTSR (UniProt Q8IWS0) | -0.00964 | 0.0332
PECR_Q9BY49_191_SLALEWACSGIR (UniProt Q9BY49) | 0.0903 | -0.863
PHF14_O94880_495_EGLLSEAAAEEDIADPFFAYCK (UniProt O94880) | -0.0135 | 0.6

Target | probe-labelled cysteine peptide fold change (10 µM) | probe-labelled cysteine peptide fold change (50 µM)
PGP_A6NDG6_193_YLQQPGCLLVGTNMDNR (UniProt A6NDG6) | 0.0138 | 0.0531
PHPT1_Q9NRX4_73_QGCDCECLGGGR (UniProt Q9NRX4) | 0.0619 | -0.0266
PHF2_O75151_869_NSVDLDDYEEEQDHLDACFK (UniProt O75151) | 0.705 | 0.0194
PHLPP1_O60346_1028_CVPLLTGHPHLK (UniProt O60346) | 0.0875 | 0.696
PHGDH_O43175_369_NAGNCLSPAVIVGLLK (UniProt O43175) | -0.159 | -0.84
PIBF1_Q8WXW3_199_EICELQVK (UniProt Q8WXW3) | 0.0221 | -0.0281
PFKP_Q01813_123_GITNLCVIGGDGSLTGANLFRK (UniProt Q01813) | -0.0443 | -0.357
PGM2_Q96G03_573_YYAELCAPPGNSDPEQLKK (UniProt Q96G03) | -0.148 | -0.304
PIK3CD_O00329_355_LVVQAGLFHGNEMLCK (UniProt O00329) | 0.0869 | 0.075
PHF3_Q92576_186_EEVCMSLKPEYHK (UniProt Q92576) | -0.339 | -0.228
PI4KA_P42356_1215_DCDPQLLHHLCWGPLR (UniProt P42356) | 0.181 | 0.179
PFKP_Q01813_360_LPLMECVQMTQDVQK (UniProt Q01813) | 0.112 | 0.00538
PEX11B_O96011_18+25_LCRAAQYACSLLGHALQRHGASPELQK (UniProt O96011) | 0.0027 | -0.126
PHGDH_O43175_48_QNLSKEELIAELQDCEGLIVR (UniProt O43175) | -0.205 | -0.702
PFKFB3_Q16875_178_DCNSAEAMDDFMK (UniProt Q16875) | 0.00332 | 0.0296
PIGT_Q969N2_272_TLTEPCPLASESR (UniProt Q969N2) | -0.0656 | 0.264
PGAM1_P18669_153_YADLTEDQLPSCESLK (UniProt P18669) | -0.0615 | 0.153
PHKB_Q93100_1066_GTCSYLTK (UniProt Q93100) | 0.0117 | -0.0313
PHIP_Q8WWQ0_245_GHAAEISDMAVNYENTMIAAGSCDK (UniProt Q8WWQ0) | 0.0153 | -0.0397
PEPD_P12955_58_YCTDTGVLFR (UniProt P12955) | 0.0457 | 0.0174
PHIP_Q8WWQ0_954_RCPFVPQMGDEVYYFR (UniProt Q8WWQ0) | -0.204 | -0.506

Target | probe-labelled cysteine peptide fold change (10 µM) | probe-labelled cysteine peptide fold change (50 µM)
PHB_P35232_69_GVQDIVVGEGTHFLIPWVQKPIIFDCR (UniProt P35232) | 0.00281 | 0.196
PHRF1_Q9P1Y6_145_NANSCPVDR (UniProt Q9P1Y6) | -0.175 | -0.162
PHLPP1_O60346_859_LGDLDAMIFNNIEVLHCER (UniProt O60346) | 0.189 | 0.162
PFAS_O15067_1027_CVAEEER (UniProt O15067) | -0.163 | -0.0174
PHLPP1_O60346_914_NRLENVPEWVCESR (UniProt O60346) | 0.182 | -0.105
PELO_Q9BRX2_204_CILVASPGFVR (UniProt Q9BRX2) | 0.137 | 0.22
PHF6_Q8IWS0_94_LMCSLCHCPGATIGCDVK (UniProt Q8IWS0) | -0.125 | -0.21
PFAS_O15067_606_RIVLVDDRECPVR (UniProt O15067) | -0.103 | -0.192
PHF3_Q92576_885_ESTTVTCTGEK (UniProt Q92576) | -0.118 | -0.51
PGK1_P00558_99_DCVGPEVEK (UniProt P00558) | -0.2 | -0.0544
PGD_P52209_289_CLSSLKDER (UniProt P52209) | -0.0918 | -0.7
PHF6_Q8IWS0_107_TYHYHCALHDK (UniProt Q8IWS0) | -0.0769 | -0.0881
PHYKPL_Q8IUZ5_288_SIGNGHPVACVAATQPVAR (UniProt Q8IUZ5) | 0.0774 | 0.167
PIAS1_O75925_335_VSLLCPLGK (UniProt O75925) | 0.122 | -0.127
PHF5A_Q7RTV0_75_ECTIQEK (UniProt Q7RTV0) | -0.0797 | -0.327
PIGQ_Q9BRB3_247_LSTCEQLR (UniProt Q9BRB3) | -0.169 | -0.666
PEX6_Q13608_358_VVQEGDVLCVPTIGQVEILEGSPEK (UniProt Q13608) | -0.199 | 0.186
PFAS_O15067_318_HVVFTAETHNFPTGVCPFSGATTGTGGR (UniProt O15067) | -0.0528 | 0.119
PHF10_Q8WUB8_134_ELNVITETQCTLGLTALR (UniProt Q8WUB8) | 0.0174 | 0.223
PIK3C2A_O00443_317_STANCHLER (UniProt O00443) | -0.0954 | -0.473
PHF20L1_A8MW92_497_GSEVTAPVASDSSYRNECPR (UniProt A8MW92) | -0.0394 | 0.00665

From the supplement of paper PMC12067093, “Discovery and optimisation of a covalent ligand for TRIM25 and its application to targeted protein ubiquitination” (Chemical Science, 2025)
